Source: patent publication US10774143 (LA JOLLA INSTITUTE FOR ALLERGY AND IMMUNOLOGY, dated 2020)
Results are given in words; binding and its absence hold for the method and conditions named. For some of these results: In cells and extracts the contact can be indirect. Some entries that bind do so weakly or less than the wild type.

Chains of the proteins cited; added tags and fusions are not shown. Lines headed by an entry give the natural chain unless they say otherwise; changes in a name come on top.
UniProt Q14643: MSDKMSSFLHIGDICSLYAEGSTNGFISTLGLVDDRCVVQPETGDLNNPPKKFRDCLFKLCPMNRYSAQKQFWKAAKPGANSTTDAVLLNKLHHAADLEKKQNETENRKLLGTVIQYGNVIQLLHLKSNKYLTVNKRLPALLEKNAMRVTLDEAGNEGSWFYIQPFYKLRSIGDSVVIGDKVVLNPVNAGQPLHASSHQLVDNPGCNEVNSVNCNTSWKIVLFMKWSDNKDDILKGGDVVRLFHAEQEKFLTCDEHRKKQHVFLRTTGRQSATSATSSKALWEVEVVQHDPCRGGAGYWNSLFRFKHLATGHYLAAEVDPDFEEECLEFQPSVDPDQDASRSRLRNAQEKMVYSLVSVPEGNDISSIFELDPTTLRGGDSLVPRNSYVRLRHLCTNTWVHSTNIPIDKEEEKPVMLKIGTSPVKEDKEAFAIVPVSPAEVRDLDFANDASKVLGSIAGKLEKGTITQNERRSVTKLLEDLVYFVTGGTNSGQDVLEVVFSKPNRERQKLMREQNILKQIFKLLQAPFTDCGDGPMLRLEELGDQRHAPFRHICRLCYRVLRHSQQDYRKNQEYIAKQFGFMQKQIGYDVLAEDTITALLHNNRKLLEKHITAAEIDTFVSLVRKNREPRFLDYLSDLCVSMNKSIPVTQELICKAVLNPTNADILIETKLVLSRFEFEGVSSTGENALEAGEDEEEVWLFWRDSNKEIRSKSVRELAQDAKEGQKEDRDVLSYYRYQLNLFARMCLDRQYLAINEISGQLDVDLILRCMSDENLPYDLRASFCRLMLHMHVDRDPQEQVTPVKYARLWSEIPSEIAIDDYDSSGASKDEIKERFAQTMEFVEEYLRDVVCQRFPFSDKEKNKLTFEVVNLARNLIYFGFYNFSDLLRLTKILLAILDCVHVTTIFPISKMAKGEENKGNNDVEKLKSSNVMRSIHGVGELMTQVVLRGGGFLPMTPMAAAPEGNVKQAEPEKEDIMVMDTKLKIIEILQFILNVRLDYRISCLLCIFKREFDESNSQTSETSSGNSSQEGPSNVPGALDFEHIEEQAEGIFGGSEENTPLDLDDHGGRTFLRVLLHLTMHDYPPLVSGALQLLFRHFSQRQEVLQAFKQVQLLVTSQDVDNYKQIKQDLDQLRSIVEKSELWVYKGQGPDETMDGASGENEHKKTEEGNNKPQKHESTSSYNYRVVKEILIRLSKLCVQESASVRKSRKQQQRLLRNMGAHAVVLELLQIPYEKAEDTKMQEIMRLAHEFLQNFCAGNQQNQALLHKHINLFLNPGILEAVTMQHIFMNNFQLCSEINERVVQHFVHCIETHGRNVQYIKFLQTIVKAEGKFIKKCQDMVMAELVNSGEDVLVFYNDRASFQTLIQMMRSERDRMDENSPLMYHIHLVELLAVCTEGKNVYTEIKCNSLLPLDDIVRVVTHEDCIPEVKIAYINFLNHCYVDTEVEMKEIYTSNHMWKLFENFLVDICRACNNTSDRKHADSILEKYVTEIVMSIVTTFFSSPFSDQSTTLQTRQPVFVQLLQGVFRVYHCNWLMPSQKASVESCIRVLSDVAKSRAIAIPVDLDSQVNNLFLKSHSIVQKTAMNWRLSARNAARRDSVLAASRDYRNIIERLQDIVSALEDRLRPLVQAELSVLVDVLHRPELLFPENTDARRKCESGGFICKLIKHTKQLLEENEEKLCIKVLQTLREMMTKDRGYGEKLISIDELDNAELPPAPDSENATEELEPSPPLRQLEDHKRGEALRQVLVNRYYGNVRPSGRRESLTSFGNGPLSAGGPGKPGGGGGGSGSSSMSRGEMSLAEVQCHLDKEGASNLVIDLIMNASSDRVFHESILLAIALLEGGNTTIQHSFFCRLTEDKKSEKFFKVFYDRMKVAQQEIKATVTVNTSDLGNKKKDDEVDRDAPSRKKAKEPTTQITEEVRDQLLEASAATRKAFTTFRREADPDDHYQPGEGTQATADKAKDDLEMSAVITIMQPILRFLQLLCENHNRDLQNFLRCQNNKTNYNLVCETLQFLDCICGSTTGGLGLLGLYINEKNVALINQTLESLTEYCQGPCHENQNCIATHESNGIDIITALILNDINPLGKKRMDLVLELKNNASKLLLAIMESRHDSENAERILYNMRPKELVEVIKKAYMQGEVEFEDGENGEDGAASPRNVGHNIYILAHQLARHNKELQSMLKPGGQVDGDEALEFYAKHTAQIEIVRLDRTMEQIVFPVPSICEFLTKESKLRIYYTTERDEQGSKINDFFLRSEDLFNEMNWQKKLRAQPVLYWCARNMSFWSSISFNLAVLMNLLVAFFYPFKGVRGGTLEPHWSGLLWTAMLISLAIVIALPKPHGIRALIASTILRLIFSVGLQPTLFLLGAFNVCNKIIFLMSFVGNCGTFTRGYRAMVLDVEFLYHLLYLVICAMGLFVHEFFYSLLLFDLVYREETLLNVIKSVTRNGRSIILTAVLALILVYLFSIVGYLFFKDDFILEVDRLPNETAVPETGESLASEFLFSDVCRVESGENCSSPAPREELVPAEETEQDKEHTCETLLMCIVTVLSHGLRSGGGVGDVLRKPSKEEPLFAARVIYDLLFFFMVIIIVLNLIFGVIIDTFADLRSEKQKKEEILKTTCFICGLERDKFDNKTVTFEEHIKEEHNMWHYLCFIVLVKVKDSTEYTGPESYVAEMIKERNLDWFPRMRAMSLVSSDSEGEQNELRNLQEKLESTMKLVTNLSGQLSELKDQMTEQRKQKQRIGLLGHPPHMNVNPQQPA
UniProt P11881: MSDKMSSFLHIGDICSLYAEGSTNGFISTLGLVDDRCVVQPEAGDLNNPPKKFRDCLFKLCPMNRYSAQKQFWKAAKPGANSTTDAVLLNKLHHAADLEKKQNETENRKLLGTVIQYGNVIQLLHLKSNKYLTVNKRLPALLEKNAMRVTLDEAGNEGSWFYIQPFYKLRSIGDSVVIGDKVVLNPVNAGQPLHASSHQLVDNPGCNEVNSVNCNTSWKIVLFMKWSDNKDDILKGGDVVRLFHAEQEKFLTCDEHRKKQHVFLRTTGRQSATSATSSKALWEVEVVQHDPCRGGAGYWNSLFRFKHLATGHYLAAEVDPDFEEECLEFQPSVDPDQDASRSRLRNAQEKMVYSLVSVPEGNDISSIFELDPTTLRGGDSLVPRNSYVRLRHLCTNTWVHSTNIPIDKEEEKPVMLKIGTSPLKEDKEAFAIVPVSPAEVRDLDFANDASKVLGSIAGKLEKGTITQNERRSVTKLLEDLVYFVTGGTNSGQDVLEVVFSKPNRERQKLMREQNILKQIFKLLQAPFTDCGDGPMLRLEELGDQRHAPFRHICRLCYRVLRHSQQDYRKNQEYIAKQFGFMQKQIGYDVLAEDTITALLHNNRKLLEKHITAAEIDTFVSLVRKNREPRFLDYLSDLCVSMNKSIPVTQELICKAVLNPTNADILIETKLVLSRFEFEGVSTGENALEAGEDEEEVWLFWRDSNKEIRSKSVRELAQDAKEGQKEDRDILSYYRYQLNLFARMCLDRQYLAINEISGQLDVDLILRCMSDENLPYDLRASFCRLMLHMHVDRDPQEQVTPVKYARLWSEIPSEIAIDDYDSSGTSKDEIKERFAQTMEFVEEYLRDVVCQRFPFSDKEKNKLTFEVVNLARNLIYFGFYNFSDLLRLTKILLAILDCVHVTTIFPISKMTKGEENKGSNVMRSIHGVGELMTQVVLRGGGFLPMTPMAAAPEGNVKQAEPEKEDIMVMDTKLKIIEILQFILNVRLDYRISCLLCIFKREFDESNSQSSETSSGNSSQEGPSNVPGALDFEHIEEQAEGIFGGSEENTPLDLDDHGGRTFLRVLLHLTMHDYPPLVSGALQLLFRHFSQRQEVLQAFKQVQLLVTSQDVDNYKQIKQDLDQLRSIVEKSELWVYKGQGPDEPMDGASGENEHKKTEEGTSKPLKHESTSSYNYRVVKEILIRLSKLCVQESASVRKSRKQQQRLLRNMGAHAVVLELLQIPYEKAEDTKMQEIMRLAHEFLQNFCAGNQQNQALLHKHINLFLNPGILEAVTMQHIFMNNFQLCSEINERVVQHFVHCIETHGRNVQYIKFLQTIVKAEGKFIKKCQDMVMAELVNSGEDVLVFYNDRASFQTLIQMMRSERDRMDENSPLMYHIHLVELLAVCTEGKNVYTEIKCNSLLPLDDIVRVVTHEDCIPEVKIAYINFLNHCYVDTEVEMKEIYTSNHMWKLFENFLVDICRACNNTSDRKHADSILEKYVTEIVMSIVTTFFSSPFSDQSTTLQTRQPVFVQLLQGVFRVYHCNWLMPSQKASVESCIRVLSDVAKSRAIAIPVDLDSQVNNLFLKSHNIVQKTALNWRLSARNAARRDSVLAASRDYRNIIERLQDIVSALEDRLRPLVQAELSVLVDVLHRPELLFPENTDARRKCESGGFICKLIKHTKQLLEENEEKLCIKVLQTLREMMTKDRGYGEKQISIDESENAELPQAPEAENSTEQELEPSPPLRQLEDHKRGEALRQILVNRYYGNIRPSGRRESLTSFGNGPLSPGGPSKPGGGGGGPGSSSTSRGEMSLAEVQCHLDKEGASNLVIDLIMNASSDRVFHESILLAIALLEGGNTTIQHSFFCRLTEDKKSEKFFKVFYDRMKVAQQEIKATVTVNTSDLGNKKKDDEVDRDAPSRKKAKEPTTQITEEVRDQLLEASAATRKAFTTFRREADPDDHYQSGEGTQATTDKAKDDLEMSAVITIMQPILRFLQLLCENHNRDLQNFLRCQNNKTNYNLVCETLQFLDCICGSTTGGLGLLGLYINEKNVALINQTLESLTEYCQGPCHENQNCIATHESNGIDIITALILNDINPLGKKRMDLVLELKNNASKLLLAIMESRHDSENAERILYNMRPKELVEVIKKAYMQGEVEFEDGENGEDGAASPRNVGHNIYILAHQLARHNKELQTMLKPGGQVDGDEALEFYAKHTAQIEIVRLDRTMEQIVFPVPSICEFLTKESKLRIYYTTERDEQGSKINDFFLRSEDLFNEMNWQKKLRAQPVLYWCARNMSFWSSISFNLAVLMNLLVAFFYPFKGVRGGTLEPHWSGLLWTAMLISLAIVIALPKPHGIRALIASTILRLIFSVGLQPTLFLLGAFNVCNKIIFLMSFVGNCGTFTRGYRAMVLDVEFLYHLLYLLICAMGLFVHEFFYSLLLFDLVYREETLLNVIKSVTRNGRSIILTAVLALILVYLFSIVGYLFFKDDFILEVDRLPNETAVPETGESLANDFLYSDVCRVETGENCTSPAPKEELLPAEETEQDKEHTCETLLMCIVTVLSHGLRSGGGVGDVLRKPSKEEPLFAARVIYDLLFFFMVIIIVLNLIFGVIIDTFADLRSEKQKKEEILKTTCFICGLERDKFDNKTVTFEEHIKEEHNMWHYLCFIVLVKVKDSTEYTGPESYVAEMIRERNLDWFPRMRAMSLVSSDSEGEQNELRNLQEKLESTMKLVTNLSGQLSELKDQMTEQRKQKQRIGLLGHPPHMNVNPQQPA
UniProt Q8C2K1: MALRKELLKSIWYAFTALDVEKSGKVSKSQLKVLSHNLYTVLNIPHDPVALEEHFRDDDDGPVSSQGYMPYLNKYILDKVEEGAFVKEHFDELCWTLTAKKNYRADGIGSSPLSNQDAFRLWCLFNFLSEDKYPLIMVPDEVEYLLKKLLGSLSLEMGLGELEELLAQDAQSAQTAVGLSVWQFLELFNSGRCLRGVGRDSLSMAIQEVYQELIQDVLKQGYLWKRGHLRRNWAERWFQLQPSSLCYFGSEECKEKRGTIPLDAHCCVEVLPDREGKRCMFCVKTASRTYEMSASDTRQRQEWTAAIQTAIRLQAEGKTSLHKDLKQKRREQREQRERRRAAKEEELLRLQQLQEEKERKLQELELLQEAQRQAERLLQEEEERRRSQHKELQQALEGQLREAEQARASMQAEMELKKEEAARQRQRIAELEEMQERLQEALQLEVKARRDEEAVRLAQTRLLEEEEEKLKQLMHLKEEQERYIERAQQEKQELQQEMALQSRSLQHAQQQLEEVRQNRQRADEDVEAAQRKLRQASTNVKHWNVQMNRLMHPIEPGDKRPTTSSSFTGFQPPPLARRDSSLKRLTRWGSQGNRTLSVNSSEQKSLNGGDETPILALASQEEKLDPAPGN

Tests used:
[1] = biological target: GST-IP3R1-f.A fusion protein (IP3R1 residues 346-441; printed as 366-441 in Example 2) (Homo sapiens (Human)) (UniProt Q14643); experiment: GST pull-down from T cell lysates
[2] = biological target: inositol triphosphate receptor type I (IP3R1), endogenous mouse protein (mouse) (UniProt P11881); experiment: SLAT IP and anti-IP3R1 immunoblot
[3] = biological target: GST-IP3R1-f.A fusion protein (IP3R1 residues 346-441; printed as 366-441 in Example 2) (Homo sapiens (Human)) (UniProt Q14643); experiment: GST pull-down from lysates of stimulated MCC-T cells
[4] = biological target: GST-IP3R1-f2.1 fusion protein (IP3R1 residues 346-490) (Homo sapiens (Human)) (UniProt Q14643); experiment: as above
[5] = biological target: inositol triphosphate receptor type I (IP3R1), endogenous mouse protein (mouse) (UniProt P11881); experiment: co-IP and proximity ligation, closing sentence of Example 1
[6] = biological target: inositol triphosphate receptor type I (IP3R1), endogenous mouse protein (mouse) (UniProt P11881); experiment: co-IP from anti-CD3/CD28-stimulated CD4+ T cells; close proximity also shown by Duolink proximity ligation assay
[7] = biological target: Flag-tagged IP3R1-f2.1 (residues 346-490) (Homo sapiens (Human)) (UniProt Q14643); experiment: co-IP from Jurkat-TAg cells cotransfected with Flag-IP3R1-f2.1

Measured: binding

SWAP-70-like adaptor of T cells (SLAT), endogenous mouse protein (from UniProt Q8C2K1 1-630)
not listed: [7]
binds: all other assays above

Myc-tagged SLAT PH domain (from UniProt Q9H4E7 217-312)
binds: [7]
